Experimental data published in patent US11976092B2, “RNA nanostructures, methods of making, and uses thereof” (Ohio State Innovation Foundation, priority 2018, dated 2024).
In brackets after ≈: the same amount, converted by molar mass.

What was measured:
[1] = 1 mM in DEPC H2O
[2] = cited from earlier work

CC(=O)O[C@H]1C(=O)[C@@]2(C)[C@H]([C@H](OC(=O)c3ccccc3)[C@]3(O)C[C@H](OC(=O)[C@H](O)[C@@H](NC(=O)c4ccccc4)c4ccccc4)C(C)=C1C3(C)C)[C@]1(OC(C)=O)CO[C@@H]1C[C@@H]2O [Paclitaxel]
appearance of solution (water solubility) [1]: cloudy solution | water solubility [2]: ~0.4 µg/mL (≈ 0.468 µM)
